These are yes or no findings as the source states them, for the method shown. Binding seen in cells or lysates may run through a third protein. Here binding means that the protein was enriched with, or labelled near, the bait; the list need not be complete. Tags and fused reporters may be left off the sequences shown.
Target: T1, Cilia- and flagella-associated protein 77 (CFAP77), endogenous in mouse testis (mouse (endogenous in testis))
T1 sequence: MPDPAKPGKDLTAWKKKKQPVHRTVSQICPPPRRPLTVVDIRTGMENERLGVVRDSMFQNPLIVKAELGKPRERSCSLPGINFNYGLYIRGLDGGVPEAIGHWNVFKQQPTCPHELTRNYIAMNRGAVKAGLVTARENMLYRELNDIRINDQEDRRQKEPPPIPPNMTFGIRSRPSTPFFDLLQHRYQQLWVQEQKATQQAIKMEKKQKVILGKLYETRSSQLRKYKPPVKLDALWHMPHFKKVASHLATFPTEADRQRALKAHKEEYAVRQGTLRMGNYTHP
Assay: affinity purification with mass spectrometry; immunoprecipitation with an anti-CFAP77 antibody on Dynabeads from mouse testis lysates, LC-MS/MS; Cfap77 KO testes with the same beads and antibody as negative control

Sequences of proteins named here, by UniProt entry; tags and fusion partners are left off.
UniProt Q8C4X2: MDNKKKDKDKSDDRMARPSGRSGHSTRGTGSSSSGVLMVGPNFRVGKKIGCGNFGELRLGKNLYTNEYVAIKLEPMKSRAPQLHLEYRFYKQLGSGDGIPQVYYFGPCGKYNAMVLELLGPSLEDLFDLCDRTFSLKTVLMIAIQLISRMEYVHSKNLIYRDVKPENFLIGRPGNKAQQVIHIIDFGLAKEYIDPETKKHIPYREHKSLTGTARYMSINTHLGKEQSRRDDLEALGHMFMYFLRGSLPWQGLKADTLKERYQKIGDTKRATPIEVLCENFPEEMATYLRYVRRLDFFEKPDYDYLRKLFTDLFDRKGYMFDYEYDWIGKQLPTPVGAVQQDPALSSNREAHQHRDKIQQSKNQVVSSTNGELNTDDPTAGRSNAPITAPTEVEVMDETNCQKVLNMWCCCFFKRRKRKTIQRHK
UniProt Q569L8: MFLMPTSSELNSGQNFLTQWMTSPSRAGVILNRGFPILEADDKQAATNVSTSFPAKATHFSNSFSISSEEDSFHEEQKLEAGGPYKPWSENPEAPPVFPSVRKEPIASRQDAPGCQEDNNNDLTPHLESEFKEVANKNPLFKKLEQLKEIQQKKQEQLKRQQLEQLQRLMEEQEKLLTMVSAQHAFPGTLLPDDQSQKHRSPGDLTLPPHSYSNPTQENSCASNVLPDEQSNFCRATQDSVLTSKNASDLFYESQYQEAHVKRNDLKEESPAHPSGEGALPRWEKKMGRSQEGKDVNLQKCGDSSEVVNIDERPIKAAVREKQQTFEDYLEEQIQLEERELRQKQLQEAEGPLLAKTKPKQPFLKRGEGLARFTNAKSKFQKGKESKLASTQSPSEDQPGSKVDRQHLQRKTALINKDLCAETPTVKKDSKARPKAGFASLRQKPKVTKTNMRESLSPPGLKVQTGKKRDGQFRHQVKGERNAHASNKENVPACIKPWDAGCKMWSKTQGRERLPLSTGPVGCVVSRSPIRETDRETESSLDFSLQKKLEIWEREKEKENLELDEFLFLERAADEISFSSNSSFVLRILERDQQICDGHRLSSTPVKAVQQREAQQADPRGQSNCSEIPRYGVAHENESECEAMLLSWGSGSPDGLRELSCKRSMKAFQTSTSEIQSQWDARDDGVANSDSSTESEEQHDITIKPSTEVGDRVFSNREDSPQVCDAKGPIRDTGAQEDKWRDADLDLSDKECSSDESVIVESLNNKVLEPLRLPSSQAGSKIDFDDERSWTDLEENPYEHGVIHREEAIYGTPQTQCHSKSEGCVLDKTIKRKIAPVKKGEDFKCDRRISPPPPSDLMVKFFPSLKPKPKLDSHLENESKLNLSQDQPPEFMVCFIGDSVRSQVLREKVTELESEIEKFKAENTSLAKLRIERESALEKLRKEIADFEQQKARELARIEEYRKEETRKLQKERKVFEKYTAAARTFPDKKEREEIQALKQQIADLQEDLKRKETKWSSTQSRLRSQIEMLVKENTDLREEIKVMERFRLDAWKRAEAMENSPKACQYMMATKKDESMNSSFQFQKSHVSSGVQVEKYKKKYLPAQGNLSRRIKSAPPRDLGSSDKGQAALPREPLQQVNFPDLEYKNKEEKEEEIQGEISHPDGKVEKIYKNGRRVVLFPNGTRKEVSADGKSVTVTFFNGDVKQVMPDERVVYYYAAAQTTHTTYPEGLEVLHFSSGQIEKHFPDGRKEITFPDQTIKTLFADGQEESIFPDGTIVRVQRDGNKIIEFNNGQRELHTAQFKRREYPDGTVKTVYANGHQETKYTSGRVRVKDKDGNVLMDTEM
UniProt Q80VP1: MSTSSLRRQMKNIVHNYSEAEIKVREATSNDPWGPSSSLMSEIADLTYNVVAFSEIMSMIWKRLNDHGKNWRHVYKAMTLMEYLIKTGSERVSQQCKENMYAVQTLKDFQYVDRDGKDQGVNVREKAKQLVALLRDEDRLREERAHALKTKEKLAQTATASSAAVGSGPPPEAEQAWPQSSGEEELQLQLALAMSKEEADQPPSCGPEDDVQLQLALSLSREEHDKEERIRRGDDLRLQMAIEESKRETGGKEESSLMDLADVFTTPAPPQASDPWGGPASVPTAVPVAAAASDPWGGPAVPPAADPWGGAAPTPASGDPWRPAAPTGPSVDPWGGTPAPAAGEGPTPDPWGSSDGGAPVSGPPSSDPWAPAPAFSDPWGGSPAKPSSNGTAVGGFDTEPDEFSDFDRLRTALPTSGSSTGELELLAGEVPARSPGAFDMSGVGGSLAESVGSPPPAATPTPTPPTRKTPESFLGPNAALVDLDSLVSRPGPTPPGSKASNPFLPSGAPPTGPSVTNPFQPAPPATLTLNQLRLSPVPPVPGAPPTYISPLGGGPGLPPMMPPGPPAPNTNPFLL

| Substance | binding |
| --- | --- |
| CSNK1G3, endogenous in mouse testis (from UniProt Q8C4X2 1-424) | binds |
| CENPJ, endogenous in mouse testis (from UniProt Q569L8 1-1344) | binds |
| EPN1, endogenous in mouse testis (from UniProt Q80VP1 1-575) | binds |

From paper PMC13002332
